Assay results: the supplement of paper PMC10849652
Some of the results follow.

The chains behind the UniProt entries cited, without tags or fusion partners. Where a name states a change or a piece, a line headed by the entry shows the natural chain unless it says otherwise.
UniProt Q9H7F0: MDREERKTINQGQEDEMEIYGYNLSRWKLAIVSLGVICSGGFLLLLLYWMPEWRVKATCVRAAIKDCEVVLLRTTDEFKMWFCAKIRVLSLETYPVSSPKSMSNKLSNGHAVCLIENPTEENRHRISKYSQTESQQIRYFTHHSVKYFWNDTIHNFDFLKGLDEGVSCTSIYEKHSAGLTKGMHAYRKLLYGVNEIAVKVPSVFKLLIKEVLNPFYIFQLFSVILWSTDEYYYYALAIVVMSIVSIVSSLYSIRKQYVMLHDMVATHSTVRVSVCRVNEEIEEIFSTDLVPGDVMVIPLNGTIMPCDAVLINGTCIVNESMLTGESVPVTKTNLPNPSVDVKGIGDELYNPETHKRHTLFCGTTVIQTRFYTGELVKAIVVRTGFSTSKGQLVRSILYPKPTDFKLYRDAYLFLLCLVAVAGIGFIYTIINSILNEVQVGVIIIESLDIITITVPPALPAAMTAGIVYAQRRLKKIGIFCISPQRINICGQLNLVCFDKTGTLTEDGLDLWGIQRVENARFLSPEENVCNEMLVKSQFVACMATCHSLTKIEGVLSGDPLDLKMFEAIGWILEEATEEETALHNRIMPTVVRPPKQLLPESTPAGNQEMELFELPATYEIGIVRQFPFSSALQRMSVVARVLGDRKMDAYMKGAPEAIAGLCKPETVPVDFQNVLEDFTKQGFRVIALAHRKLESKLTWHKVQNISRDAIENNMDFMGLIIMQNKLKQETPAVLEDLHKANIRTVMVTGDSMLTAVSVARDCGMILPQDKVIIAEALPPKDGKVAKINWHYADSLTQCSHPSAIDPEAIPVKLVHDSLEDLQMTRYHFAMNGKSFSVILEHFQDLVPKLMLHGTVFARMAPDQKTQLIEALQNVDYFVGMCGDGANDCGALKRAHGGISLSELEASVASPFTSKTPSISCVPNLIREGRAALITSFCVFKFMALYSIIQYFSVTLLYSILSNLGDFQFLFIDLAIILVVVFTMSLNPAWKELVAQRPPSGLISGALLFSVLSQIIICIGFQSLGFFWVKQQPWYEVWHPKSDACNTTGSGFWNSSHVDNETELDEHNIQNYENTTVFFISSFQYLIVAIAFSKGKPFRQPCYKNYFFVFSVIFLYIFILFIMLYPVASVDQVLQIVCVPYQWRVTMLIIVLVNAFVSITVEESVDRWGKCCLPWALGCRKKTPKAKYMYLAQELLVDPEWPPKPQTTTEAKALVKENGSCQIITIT
UniProt Q9Y5K8, whole entry, looked up: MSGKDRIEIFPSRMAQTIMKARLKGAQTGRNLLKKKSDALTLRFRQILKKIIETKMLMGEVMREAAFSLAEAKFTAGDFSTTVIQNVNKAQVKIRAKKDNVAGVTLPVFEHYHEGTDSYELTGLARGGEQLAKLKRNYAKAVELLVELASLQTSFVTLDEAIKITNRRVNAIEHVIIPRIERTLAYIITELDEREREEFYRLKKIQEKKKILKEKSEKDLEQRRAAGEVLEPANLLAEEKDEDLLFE
UniProt Q12797: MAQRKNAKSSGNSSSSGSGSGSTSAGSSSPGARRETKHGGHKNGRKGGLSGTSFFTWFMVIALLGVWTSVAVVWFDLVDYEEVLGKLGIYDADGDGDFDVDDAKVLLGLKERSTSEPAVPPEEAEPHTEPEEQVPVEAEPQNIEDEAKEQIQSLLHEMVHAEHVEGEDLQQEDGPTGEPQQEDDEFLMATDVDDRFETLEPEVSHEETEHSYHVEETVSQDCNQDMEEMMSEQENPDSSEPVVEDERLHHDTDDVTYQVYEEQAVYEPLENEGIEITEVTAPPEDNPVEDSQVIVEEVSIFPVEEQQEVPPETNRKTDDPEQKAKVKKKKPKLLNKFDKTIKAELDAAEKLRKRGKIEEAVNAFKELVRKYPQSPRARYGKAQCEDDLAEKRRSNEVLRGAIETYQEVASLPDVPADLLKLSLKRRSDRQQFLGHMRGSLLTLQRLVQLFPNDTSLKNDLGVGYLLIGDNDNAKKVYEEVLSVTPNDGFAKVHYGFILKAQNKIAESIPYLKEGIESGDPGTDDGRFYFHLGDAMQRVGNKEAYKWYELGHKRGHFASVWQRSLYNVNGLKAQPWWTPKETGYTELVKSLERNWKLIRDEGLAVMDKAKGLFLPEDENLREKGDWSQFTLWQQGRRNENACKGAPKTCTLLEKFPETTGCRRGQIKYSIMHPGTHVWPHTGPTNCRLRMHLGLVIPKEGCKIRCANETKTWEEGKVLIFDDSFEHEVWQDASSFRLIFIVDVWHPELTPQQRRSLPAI
UniProt Q9Y4P1: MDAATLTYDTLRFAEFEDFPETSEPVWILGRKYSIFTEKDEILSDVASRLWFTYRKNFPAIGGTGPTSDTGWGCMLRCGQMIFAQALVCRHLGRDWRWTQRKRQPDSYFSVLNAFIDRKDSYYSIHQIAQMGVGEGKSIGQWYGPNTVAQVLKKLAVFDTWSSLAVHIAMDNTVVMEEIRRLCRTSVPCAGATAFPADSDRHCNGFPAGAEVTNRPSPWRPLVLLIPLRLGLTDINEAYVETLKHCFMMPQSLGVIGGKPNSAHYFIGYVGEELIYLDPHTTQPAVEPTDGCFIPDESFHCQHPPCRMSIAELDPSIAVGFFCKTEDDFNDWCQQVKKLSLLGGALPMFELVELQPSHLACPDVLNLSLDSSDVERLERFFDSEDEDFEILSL
UniProt Q9NT62, whole entry, looked up: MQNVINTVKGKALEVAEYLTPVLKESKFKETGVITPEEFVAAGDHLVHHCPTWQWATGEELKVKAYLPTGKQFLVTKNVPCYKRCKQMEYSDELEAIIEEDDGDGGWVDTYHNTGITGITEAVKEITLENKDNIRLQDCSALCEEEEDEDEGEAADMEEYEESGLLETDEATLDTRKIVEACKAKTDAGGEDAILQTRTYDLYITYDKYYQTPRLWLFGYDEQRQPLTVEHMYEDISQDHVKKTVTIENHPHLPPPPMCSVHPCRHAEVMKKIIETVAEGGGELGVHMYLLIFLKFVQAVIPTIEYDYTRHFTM
UniProt P56378: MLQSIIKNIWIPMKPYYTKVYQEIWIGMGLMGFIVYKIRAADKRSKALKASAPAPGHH
UniProt P61421, whole entry, looked up: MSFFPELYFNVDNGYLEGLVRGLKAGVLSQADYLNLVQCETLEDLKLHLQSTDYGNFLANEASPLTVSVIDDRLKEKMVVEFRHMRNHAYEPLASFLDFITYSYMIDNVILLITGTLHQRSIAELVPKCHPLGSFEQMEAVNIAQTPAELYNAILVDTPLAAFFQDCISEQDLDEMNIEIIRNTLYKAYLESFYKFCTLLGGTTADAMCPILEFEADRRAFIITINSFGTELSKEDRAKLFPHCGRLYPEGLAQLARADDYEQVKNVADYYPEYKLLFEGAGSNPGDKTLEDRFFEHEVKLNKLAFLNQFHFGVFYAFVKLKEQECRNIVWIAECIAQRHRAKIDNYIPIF
UniProt Q16864, whole entry, looked up: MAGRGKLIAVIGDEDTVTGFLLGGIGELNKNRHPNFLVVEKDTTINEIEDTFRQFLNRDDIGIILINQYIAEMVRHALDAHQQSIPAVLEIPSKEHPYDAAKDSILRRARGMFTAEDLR
UniProt Q96DT6: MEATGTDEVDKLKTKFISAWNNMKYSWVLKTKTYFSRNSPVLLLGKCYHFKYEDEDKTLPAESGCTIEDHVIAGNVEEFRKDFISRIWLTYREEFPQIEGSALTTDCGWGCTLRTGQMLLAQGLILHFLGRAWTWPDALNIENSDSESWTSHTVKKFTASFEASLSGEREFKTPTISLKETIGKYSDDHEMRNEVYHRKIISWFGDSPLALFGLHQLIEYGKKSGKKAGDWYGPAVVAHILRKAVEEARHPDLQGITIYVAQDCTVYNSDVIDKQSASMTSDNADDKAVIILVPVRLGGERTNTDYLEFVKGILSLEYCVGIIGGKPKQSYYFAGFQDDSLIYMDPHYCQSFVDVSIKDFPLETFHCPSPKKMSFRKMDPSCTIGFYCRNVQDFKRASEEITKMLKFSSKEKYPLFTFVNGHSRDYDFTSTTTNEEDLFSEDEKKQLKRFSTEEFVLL
UniProt Q9NWX5: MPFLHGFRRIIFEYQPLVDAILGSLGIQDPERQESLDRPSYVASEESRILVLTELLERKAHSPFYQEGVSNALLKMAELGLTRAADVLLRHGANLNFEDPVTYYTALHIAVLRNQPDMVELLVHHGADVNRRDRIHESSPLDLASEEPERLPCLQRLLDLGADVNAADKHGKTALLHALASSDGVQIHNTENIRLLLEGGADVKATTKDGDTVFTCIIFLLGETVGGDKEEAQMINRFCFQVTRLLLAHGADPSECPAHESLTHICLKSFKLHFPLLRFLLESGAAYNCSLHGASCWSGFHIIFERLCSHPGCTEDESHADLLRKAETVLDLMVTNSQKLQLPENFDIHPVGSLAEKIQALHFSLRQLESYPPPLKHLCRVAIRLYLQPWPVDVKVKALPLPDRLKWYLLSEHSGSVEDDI
UniProt Q8NBU5: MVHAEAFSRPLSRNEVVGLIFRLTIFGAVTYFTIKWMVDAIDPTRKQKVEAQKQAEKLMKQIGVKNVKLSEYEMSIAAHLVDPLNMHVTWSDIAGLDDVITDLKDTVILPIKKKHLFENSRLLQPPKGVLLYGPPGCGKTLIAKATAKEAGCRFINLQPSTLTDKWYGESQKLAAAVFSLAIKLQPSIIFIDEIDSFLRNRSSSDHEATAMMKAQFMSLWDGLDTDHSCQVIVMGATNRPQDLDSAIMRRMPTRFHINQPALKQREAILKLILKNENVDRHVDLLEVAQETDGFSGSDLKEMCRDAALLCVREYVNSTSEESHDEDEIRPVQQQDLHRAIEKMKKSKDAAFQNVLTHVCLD
UniProt Q9H7T9: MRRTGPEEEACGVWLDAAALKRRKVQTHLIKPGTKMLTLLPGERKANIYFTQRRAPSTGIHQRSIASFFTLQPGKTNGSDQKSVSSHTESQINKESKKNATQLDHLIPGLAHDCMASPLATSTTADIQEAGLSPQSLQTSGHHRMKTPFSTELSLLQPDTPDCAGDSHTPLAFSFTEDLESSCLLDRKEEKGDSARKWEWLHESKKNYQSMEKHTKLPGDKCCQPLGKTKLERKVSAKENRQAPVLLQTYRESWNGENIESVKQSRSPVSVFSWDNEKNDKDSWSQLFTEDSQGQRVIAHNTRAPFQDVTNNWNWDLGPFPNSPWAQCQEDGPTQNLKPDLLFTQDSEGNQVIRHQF
UniProt P54252: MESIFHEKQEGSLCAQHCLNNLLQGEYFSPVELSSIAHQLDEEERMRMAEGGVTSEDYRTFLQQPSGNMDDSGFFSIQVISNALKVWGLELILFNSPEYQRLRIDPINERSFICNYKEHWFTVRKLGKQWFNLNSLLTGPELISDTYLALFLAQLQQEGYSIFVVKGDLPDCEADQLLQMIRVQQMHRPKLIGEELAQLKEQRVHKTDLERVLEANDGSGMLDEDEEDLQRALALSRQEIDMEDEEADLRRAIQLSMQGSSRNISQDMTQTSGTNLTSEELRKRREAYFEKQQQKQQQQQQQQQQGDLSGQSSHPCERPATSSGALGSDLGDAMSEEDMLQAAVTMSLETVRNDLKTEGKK
UniProt O43861: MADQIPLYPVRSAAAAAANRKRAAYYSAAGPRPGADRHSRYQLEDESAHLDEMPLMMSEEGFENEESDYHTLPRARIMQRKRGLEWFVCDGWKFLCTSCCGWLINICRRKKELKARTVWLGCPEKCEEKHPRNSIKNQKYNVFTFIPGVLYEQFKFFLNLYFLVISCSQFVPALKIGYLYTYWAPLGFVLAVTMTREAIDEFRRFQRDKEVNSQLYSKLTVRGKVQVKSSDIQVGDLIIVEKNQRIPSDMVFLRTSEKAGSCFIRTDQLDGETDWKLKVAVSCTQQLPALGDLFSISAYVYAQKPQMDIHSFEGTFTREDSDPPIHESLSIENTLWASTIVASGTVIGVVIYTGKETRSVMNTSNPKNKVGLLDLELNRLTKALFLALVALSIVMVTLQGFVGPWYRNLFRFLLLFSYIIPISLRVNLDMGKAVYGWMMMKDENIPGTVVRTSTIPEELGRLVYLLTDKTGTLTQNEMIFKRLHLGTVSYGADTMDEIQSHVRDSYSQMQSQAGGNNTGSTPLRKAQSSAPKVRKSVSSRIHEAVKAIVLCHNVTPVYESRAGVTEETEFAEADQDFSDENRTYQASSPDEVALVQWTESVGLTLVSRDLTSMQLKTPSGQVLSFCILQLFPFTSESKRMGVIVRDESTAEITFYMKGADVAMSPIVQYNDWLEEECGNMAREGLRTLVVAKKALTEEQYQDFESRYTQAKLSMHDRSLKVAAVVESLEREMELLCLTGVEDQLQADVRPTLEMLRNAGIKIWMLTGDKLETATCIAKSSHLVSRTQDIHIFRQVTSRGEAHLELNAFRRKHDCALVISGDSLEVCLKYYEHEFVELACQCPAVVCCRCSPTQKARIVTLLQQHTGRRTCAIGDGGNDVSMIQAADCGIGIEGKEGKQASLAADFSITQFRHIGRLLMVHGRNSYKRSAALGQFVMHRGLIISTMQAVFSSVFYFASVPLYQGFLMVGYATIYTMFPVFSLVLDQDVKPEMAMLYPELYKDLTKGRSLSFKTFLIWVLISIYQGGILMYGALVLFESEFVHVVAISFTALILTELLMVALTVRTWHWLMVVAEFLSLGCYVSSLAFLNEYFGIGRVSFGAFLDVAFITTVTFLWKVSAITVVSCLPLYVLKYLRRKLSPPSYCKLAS

compound: O=C1NC(=O)C(c2cnc3ccccn23)=C1c1cn2c3c(cc(F)cc13)CN(C(=O)N1CCCCC1)CC2; assay: log2 fold change, soluble protein after heating vs DMSO (PISA); higher = thermal stabilisation; K562 lysate, 10 uM; active = over 0.2 and 3.5 SD of the protein, either way, in both replicates (recomputed)
Outline: (§1)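 K562 pellets were dounce-homogenised in PBS pH 7.4 with 1 mM MgCl2, and the crude extract at 1 mg/mL protein was treated with 10 μM compound for 30 min. Aliquots were heated for 3 min across 48°C-58°C, pooled, and brought to 0.5% NP-40 at 4°C; soluble protein was the supernatant after 21,000xg for 90 min. Soluble protein was quantified by TMTpro 16plex LC-MS/MS with channel sums equalised, and reported as log2 fold change in thermal stability against DMSO controls, with values from duplicates.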

log2 fold change, inactive:
ATXN2 (UniProt Q99700) -0.005
ATP13A3 (UniProt Q9H7F0) -0.004
ATG9A (UniProt Q7Z3C6) 0.054
ATP6V1D (UniProt Q9Y5K8) 0.009
ATP2C1 isoform 7 (UniProt P98194) -0.013
ASCC2 (UniProt Q9H1I8) 0.026
AURKB isoform 5 (UniProt Q96GD4) 0.03
ASPH (UniProt Q12797) 0.029
ATXN7L3B (UniProt Q96GX2) 0.022
ATG4B (UniProt Q9Y4P1) -0.014
ATG3 (UniProt Q9NT62) 0.061
ATP5F1B (UniProt P06576) -0.003
ATP5MPL (UniProt P56378) -0.02
ATP6V0D1 (UniProt P61421) 0.05
ATP6V1F isoform 2 (UniProt Q16864) 0.086
ATP5IF1 (UniProt Q9UII2) 0.019
ATP2B4 (UniProt P23634) -0.079
ATE1 isoform 2 (UniProt O95260) -0.01
ATP23 (UniProt Q9Y6H3) -0.047
ATG4C (UniProt Q96DT6) -0.023
ASB6 (UniProt Q9NWX5) -0.019
ATG4A (UniProt Q8WYN0) 0.001
ASCC1 isoform 2 (UniProt Q8N9N2) -0.02
ATAD1 (UniProt Q8NBU5) 0.002
ATP1A4 (UniProt Q13733) -0.028
ASMTL (UniProt O95671) -0.027
AUNIP isoform 2 (UniProt Q9H7T9) 0.014
ATXN3 isoform 1 (UniProt P54252) -0.024
ATP11C (UniProt Q8NB49) -0.005
ATP5MF-PTCD1 (UniProt G3V325) -0.012
B3GNT2 (UniProt Q9NY97) 0.012
ATP6AP1 (UniProt Q15904) -0.023
ATP9B (UniProt O43861) -0.045

compound: c1cn2cc(-c3ccc4cn[nH]c4c3)nc(Nc3ccc(N4CCOCC4)cc3)c2n1 [entospletinib]; assay: as above
Outline: as §1

log2 fold change, inactive:
ATXN2 (UniProt Q99700) -0.008
ATP13A3 (UniProt Q9H7F0) 0.043
ATG9A (UniProt Q7Z3C6) 0.006
ATP6V1D (UniProt Q9Y5K8) 0.01
ATP2C1 isoform 7 (UniProt P98194) -0.047
ASCC2 (UniProt Q9H1I8) -0.017
AURKB isoform 5 (UniProt Q96GD4) -0.218
ASPH (UniProt Q12797) -0.016
ATXN7L3B (UniProt Q96GX2) 0.062
ATG4B (UniProt Q9Y4P1) 0.021
ATG3 (UniProt Q9NT62) 0
ATP5F1B (UniProt P06576) -0.019
ATP5MPL (UniProt P56378) 0.01
ATP6V0D1 (UniProt P61421) -0.036
ATP6V1F isoform 2 (UniProt Q16864) -0.04
ATP5IF1 (UniProt Q9UII2) 0.014
ATP2B4 (UniProt P23634) -0.042
ATE1 isoform 2 (UniProt O95260) -0.008
ATP23 (UniProt Q9Y6H3) -0.007
ATG4C (UniProt Q96DT6) -0.042
ASB6 (UniProt Q9NWX5) 0.074
ATG4A (UniProt Q8WYN0) 0.004
ASCC1 isoform 2 (UniProt Q8N9N2) -0.017
ATAD1 (UniProt Q8NBU5) 0.008
ATP1A4 (UniProt Q13733) 0.008
ASMTL (UniProt O95671) 0.009
AUNIP isoform 2 (UniProt Q9H7T9) 0.08
ATXN3 isoform 1 (UniProt P54252) -0.041
ATP11C (UniProt Q8NB49) -0.002
ATP5MF-PTCD1 (UniProt G3V325) 0.029
B3GNT2 (UniProt Q9NY97) 0.034
ATP6AP1 (UniProt Q15904) 0.005
ATP9B (UniProt O43861) 0
